Reference: PubChem BioAssay AID602196 (INSERM, 2012)
The whole screen tested about 23,000 reagents; this is a random part of them. In the full data, 455 (2%) got an active call. 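Active includes both protection and sensitisation; some change values fall well beyond the stated -50 to +50 range.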 Not stated in the record: the amount of reagent.

Test: 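Knock-downs that protect lung cancer cells from cisplatin or sensitise them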
System: human A549 lung cancer cells
Reagents: siRNA pair against human genes
Duration: 48 h transfection before cisplatin; time from cisplatin to read-out not stated
Treatment: cisplatin at a dose killing half of control-siRNA cells; exact dose and duration not given
Measurement: 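Shift in cisplatin death relative to control siRNA, from -50 (all cells die) to +50 (no cells die); siRNAs harmful on their own scored 0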
Direction: two-siRNA summed score (-2 to +2): higher = both siRNAs protect from cisplatin killing; -2 means both sensitise; mean protection from cisplatin (shift in death) and protection from cisplatin (shift in death), siRNA C and protection from cisplatin (shift in death), siRNA D: higher = protection from cisplatin killing
Rule for the call: 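Each siRNA scores 0 if harmful alone by LDH or WST-1, otherwise +1 if it reduces and -1 if it increases cisplatin killing; a gene is active when both siRNAs agree (sum +2 or -2)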
Calls: active = both siRNAs shift cisplatin killing the same way; inactive = no consistent shift, or siRNA harmful alone

no.	Target gene	two-siRNA summed score (-2 to +2)	mean protection from cisplatin (shift in death) (%)	protection from cisplatin (shift in death), siRNA C (%)	protection from cisplatin (shift in death), siRNA D (%)	Call
1	SLC39A6	0	-6	-21.5	9.4	inactive
2	CEP85	0	11.4	16	6.8	inactive
3	TTC3	0	-1.2	1.7	-4	inactive
4	OR51E1	0	-4.7	-6.2	-3.2	inactive
5	NSMCE4A	0	3.9	7.5	0.3	inactive
6	MAGEB5	0	17.4	14.9	19.9	inactive
7	LOC440936	0	4.2	6.1	2.4	inactive
8	SGSH	0	3.3	7.5	-1	inactive
9	LOC442481	0	2.8	3.2	2.3	inactive
10	F8	0	7.7	2.5	12.8	inactive
11	IL1R1	-1	-15.5	-12.2	-18.9	inactive
12	LOC440236	2	17.9	16.3	19.4	active
13	LOC442216	0	-0.9	1	-2.8	inactive
14	LOC441754	0	7.1	3.6	10.5	inactive
15	DENND4A	0	7.1	7.2	7	inactive
16	LOC392221	0	-0.6	11.7	-12.9	inactive
17	LOC283677	0	3.1	9.4	-3.3	inactive
18	YTHDF1	0	0.5	0.7	0.3	inactive
19	CSNK1E	0	12.8	40.1	-14.5	inactive
20	RASGEF1A	0	8.6	14.6	2.6	inactive
21	LOC441128	0	4	20.7	-12.6	inactive
22	C3orf62	1	30.1	37.2	23	inactive
23	CYP2A6	0	19.1	20.9	17.2	inactive
24	ECM2	-1	-9.4	-13.7	-5	inactive
25	LOC442329	1	14.1	19.7	8.5	inactive
26	LOC441062	0	14.3	2.9	25.7	inactive
27	BEST1	0	-9.8	-7.7	-11.9	inactive
28	LOC158825	0	3.7	-1.4	8.8	inactive
29	LOC391004	1	15.5	13.2	17.8	inactive
30	CSAD	0	-11	8.1	-30	inactive
31	ZFAND2A	1	14.4	22.3	6.6	inactive
32	PLA2G2A	0	-2.3	-14.3	9.7	inactive
33	CDR2-DT	1	10.7	9.8	11.7	inactive
34	EMC2	0	3.3	3.3	3.2	inactive
35	CD34	1	-8.6	-36.6	19.5	inactive
36	THOC2	1	17.8	8.4	27.2	inactive
37	TMEM43	0	6.6	6.6	6.7	inactive
38	GRM1	-2	-13.9	-10.4	-17.4	active
39	MAGEA10	0	4.6	16.5	-7.3	inactive
40	PCOLCE2	0	2.9	16.8	-11	inactive
41	LOC284788	1	2.6	-4.5	9.7	inactive
42	AFG3L2	-1	-19.1	-37.1	-1.2	inactive
43	CANX	0	1.7	9.8	-6.5	inactive
44	TTC39A	1	9.8	6.1	13.4	inactive
45	EWSAT1	0	-1.5	5	-8	inactive
46	CPPED1	1	7.2	15.3	-0.9	inactive
47	PPIE	0	7	5	8.9	inactive
48	CD96	0	4	6.9	1.1	inactive
49	GMCL2	0	1.6	4.2	-1	inactive
50	TCL1B	0	16.2	6.9	25.5	inactive
51	LOC441321	0	0.6	1.5	-0.4	inactive
52	IRAG2	-2	-20.2	-22.9	-17.4	active
53	LOC400948	-1	-10.3	-12.4	-8.2	inactive
54	LOC442719	0	13.1	15.3	11	inactive
55	PRR22	1	4.7	12.7	-3.2	inactive
56	LOC391475	0	4.5	4.6	4.5	inactive
57	PCDHGA6	0	14.4	17.8	11	inactive

Limited to “mean protection from cisplatin (shift in death) (%)”, for 3 of the entries above:
LOC441321	0.6
IRAG2	-20.2
LOC400948	-10.3
